Source: patent US20220153834A1
Results are given in words; binding and its absence hold for the method and conditions named. Some results given as binding are weak or reduced against the parent protein; the word gives no strength.

Chains of the proteins cited; added tags and fusions are not shown. Residues count along the entry.
UniProt P98066, residues 18-277: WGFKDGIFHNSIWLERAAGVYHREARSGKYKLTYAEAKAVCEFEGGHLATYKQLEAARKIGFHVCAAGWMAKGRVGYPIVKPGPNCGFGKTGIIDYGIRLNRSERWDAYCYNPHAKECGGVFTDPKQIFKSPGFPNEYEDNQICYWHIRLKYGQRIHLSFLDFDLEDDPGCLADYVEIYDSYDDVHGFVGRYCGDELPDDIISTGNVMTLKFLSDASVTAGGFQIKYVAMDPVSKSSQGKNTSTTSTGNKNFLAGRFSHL
UniProt O08859, residues 18-275: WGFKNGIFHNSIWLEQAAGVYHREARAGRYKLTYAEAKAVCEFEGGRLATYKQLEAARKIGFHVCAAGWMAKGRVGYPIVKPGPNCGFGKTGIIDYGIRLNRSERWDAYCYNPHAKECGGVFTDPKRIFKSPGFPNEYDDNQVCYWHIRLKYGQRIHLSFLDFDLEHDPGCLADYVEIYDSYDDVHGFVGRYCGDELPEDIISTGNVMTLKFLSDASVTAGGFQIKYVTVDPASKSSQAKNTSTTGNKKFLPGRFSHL

How the values were obtained:
[1] = target: Recombinant human TSG-6 (R&D Biosystems, catalog #2104-TS) (human) (UniProt P98066); assay: ELISA of hybridoma supernatants on recombinant human TSG-6
[2] = target: Recombinant mouse TSG-6 (R&D Biosystems, catalog #2326-TS) (mouse) (UniProt O08859); assay: hybridoma raised against mouse TSG-6; clone selection by ELISA

binding [1]: binds
binding [2]: binds
B1: ID12 (antibody, V domains shown)
VH: QVQLQQSGPELVKPGASVKLSCKTSGYTFTSYDINWVKQRPGQGLEWIGWIYPSDGSTKFNEKFKGMATLTVDTSSSTAYMELHSLTSEDSTVYFCARGLWYYGGGVDYWGQGTSVTVSS
VL: DAVMTQTPLSLPVSLGDQASISCRSTQSLEDSNGNTYLNWYLQKPGQSPQLLIYRVSNRFSGVLDRFSGSGSGTDFTLKISRVEAEDLGVYFCLQVTHVPYTFGGGTKLEIKR
